The data set is described as follows: general procedure: Fmoc solid-phase peptide synthesis; Rink amide resin; HBTU/HOBt/DIPEA. The settings on record: whole synthesis, analytical rpHPLC (Vydac C18), scale 0.25 mmol.

For the substance “CH3-CONH-(XFEGYDNX)-CONH2 where X=O-allyl serine”, the “final HPLC purity” value is recorded as above 95%.
